Measurements from article PMC3648463, “Common Interactions between S100A4 and S100A9 Defined by a Novel Chemical Probe” (PLoS ONE, 2013).

The chains behind the UniProt entries cited, without tags or fusion partners. Where a name states a change or a piece, a line headed by the entry shows the natural chain unless it says otherwise.
UniProt Q15109: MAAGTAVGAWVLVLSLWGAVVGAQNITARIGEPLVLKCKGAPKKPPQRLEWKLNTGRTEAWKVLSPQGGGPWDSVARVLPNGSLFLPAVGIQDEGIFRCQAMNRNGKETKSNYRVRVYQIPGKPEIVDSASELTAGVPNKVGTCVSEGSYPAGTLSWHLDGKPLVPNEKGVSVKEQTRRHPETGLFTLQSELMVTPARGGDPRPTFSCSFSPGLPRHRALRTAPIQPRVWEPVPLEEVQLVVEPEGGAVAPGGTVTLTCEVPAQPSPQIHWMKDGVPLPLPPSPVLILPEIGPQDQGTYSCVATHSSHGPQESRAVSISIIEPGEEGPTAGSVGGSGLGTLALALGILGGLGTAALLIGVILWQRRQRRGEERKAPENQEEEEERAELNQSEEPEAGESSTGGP
UniProt P26447: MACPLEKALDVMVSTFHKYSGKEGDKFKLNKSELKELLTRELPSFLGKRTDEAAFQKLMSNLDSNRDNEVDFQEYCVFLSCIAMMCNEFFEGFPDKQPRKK

Assays:
[1] = molecular target: human RAGE (receptor for advanced glycation end-products) (human) (UniProt Q15109); assay: SPR; S100A4, S100A9 and a 1:1 mixture of S100A4/9 injected (2 min at 30 µL/min) over immobilised RAGE or TLR4; no competitor; both purified
[2] = molecular target: human RAGE (receptor for advanced glycation end-products) (human) (UniProt Q15109); assay: SPR; inhibition with 0.98-500 ng/mL heparan sulfate (HS): ~1.3 µg/mL S100A4, S100A9 or the 1:1 mixture injected over immobilised RAGE; 1 mM Ca++, 20 µM Zn++, no DMSO; both purified
[3] = molecular target: human RAGE (receptor for advanced glycation end-products) (human) (UniProt Q15109); assay: SPR; Biacore 3000, inhibition format: S100A9 (50 nM), S100A4 (100 nM) or ~1.3 µg/mL S100A4, S100A9 and their 1:1 mixture, pre-incubated with oxyclozanide (OX), injected over RAGE or TLR4/MD2 immobilised on a CM5 chip (~3 kRU); HBS-P with 1 mM Ca++, 20 µM Zn++, 1% DMSO; both purified

Measured: binding

recombinant human S100A4 (from UniProt P26447 1-101)
binds: all assays above

No constants are given. Whether binding was seen depends on the method and setting. Binding can be weak; no strength is given.
